According to paper PMC8612609:
These are yes or no findings as the source states them, for the method shown. For part of these data: In cells and extracts the contact can be indirect. Some binding calls cover weakened binding; strength is not graded here. For part of these data: Where a sequence is shown, tags or fusion partners need not be part of it. Each block holds one molecule with its values, some of them ahead of it.

The chains behind the UniProt entries cited, without tags or fusion partners.
UniProt O94992: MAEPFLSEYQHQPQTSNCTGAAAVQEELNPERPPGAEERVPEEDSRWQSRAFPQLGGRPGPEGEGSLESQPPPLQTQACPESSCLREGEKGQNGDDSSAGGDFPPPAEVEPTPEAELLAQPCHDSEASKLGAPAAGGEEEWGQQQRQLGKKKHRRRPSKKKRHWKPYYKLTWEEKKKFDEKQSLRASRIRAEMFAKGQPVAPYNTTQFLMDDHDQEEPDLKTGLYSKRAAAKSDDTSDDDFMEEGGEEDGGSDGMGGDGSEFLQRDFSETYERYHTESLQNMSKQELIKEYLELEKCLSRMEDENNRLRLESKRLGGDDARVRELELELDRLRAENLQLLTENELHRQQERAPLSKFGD

Key:
[1] = biological target: Cerulean.HEXIM1 and Venus.HEXIM1 (two differently tagged copies of wild-type HEXIM1) (UniProt O94992); experiment: FRET or BRET; sensitized emission FRET microscopy in HeLa 48 hr after transfection of Cerulean-HEXIM1 and Venus-HEXIM1 with Tip110, sh-Tip110 or controls; normalized FRET (NFRET) by PixFRET
[2] = biological target: HEXIM1, endogenous (human (endogenous in 293T)) (UniProt O94992); experiment: SDS-PAGE and Western blot (monomer and dimer bands); 293T lysates (whole cell, cytosol, nuclear matrix, chromatin-binding, nuclear) of cells with Tip110 over-expression or knockdown or treated with 100 uM GSH for 2 hr; sample buffer with or without DTT; Western blot with anti-HEXIM1
[3] = biological target: purified recombinant HEXIM1 protein (UniProt O94992); experiment: SDS-PAGE and Western blot (monomer and dimer bands); data not shown; purified recombinant HEXIM1 treated with or without GSH; both purified
recombinant Tip110 His = biological target: T1, recombinant Tip110 His (UniProt Q15020); experiment: pull-down; His pulldown: 2.5 μg GST or GST-MEPCE with 2.5 μg Tip110.His in 500 μl Binding Buffer (20 mM HEPES pH 7.9, 150 mM NaCl, 0.5 mM EDTA, 10% glycerol, 0.1% Triton X-100, 1 mM DTT), Ni-NTA agarose beads; washes with 0.4 M NaCl; Western blot with anti-GST; both purified
T1 sequence: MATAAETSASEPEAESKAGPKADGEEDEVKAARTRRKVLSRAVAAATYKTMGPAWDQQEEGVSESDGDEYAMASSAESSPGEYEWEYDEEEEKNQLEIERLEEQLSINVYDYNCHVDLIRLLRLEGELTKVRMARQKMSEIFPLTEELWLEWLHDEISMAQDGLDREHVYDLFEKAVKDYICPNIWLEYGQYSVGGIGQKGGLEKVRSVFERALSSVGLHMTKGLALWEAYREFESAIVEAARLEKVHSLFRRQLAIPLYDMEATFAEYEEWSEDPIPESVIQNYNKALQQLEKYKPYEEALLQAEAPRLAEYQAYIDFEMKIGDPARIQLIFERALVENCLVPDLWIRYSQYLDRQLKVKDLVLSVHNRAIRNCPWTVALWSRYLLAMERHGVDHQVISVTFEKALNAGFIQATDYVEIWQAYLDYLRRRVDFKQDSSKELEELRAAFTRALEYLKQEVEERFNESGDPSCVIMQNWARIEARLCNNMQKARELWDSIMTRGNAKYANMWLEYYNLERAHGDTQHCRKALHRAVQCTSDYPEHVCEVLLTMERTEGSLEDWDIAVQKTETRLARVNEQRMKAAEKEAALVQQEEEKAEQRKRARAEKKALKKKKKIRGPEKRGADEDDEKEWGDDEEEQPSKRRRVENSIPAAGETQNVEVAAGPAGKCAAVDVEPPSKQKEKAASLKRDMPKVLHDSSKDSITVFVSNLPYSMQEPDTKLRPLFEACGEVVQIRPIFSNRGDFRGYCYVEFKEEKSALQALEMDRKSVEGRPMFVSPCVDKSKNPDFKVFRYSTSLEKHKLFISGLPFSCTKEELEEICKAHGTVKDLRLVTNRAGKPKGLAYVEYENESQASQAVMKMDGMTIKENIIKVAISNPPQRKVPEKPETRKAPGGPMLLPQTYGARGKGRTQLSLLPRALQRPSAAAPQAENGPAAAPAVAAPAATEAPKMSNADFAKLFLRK

[4] = biological target: T2, Flag-tagged MEPCE (methylphosphate capping enzyme) (UniProt Q7L2J0); experiment: co-IP; 293T transfected with pMEPCE.Flag; whole cell lysates, IP with anti-Flag antibody (isotype IgG and pcDNA3 as controls), Western blot with anti-Tip110
T2 sequence: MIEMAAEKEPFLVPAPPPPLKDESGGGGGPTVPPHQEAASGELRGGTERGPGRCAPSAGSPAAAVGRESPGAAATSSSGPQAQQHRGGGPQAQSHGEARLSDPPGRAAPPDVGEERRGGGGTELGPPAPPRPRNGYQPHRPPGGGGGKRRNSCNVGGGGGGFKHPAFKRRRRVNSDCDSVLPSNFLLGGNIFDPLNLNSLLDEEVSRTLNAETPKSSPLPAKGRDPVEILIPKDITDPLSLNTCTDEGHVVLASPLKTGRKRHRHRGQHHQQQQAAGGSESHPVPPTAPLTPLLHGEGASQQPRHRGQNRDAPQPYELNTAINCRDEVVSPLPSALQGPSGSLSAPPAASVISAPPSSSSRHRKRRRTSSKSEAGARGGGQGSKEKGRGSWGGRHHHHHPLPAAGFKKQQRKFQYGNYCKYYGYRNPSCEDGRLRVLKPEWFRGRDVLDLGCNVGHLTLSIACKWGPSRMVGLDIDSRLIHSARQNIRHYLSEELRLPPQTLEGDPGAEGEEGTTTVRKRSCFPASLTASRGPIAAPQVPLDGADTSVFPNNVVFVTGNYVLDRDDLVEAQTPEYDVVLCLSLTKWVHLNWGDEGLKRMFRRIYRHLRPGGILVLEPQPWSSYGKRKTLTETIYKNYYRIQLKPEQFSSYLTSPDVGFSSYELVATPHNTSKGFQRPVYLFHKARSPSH

GST-MEPCE fusion protein = biological target: T3, GST-MEPCE fusion protein (UniProt Q7L2J0); experiment: pull-down; GST pulldown: 2.5 μg GST or GST-MEPCE with 2.5 μg Tip110.His in 500 μl Binding Buffer (20 mM HEPES pH 7.9, 150 mM NaCl, 0.5 mM EDTA, 10% glycerol, 0.1% Triton X-100, 1 mM DTT), glutathione agarose beads; washes with 0.4 M NaCl; Western blot with anti-His; both purified
T3 sequence: T2 sequence

Molecule: Cerulean.HEXIM1 and Venus.HEXIM1 (two differently tagged copies of wild-type HEXIM1) (from UniProt O94992 1-359)
binding [1]: binds

Molecule: purified recombinant HEXIM1 protein (from UniProt O94992 1-359)
binding [3]: binds

B2: HIV-1 Tat-interacting protein of 110 kDa (Tip110), endogenous (protein, UniProt Q15020 1-963)
chain: T1 sequence
binding [4]: binds

Further lines, results first:

binding [2]: binds
Molecule: HEXIM1, endogenous (from UniProt O94992 1-359)

binding (recombinant Tip110 His): binds
B1: GST-MEPCE fusion protein (protein, UniProt Q7L2J0 1-689)
chain: T2 sequence

binding (GST-MEPCE fusion protein): binds
B3: recombinant Tip110 His (protein, UniProt Q15020 1-963)
chain: T1 sequence
